According to publication PMC7032568:
Results are given in words; binding and its absence hold for the method and conditions named. Binding seen in cells or lysates may run through a third protein. Some binding calls cover weakened binding; strength is not graded here. Tags and fused reporters may be left off the sequences shown. One block for each molecule: values may come before it.

Sequences of proteins named here, by UniProt entry; tags and fusion partners are left off. A change or cut given only in a name is not applied to a line headed by its entry.
UniProt P28340: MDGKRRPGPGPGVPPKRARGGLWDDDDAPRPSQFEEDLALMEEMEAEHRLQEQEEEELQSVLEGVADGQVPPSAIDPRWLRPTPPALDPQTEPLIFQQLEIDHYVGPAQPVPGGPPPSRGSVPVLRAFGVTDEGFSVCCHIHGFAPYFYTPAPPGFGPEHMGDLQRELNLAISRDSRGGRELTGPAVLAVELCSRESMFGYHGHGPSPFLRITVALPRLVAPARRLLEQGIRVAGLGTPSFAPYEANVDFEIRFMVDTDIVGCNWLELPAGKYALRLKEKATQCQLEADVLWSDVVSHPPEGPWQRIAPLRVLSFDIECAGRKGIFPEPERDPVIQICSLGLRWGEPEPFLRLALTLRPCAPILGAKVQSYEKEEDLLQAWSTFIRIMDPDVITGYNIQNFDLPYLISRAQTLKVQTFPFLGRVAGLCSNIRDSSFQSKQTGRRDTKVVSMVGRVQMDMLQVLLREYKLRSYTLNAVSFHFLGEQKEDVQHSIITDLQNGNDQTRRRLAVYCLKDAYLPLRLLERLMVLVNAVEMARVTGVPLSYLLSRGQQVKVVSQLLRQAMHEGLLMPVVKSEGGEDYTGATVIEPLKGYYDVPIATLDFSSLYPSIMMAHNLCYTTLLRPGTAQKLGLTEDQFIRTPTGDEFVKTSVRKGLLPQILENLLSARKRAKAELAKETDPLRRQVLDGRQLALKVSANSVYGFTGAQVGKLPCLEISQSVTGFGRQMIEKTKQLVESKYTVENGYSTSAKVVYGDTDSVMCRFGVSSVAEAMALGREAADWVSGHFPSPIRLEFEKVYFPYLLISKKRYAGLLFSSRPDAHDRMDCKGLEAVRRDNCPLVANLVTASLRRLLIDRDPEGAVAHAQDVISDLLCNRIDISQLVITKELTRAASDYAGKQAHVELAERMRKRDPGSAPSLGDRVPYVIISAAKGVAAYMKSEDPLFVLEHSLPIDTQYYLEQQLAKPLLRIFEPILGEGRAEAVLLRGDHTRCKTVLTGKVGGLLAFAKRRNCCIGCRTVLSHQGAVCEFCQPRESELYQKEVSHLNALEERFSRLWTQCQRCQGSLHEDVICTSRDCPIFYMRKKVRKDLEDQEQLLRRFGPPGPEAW

Key:
Assay in all cases: co-IP; Flag-tagged protein captured overnight on ANTI-FLAG M2 Affinity beads from 293T whole cell lysates (150 mM NaCl, 0.1% NP-40, treated with benzonase); beads washed three times with lysis buffer; Western blot
[1] = target: T1, Flag-tagged DDX11 (wild type) (human) (UniProt Q96FC9)
T1 sequence: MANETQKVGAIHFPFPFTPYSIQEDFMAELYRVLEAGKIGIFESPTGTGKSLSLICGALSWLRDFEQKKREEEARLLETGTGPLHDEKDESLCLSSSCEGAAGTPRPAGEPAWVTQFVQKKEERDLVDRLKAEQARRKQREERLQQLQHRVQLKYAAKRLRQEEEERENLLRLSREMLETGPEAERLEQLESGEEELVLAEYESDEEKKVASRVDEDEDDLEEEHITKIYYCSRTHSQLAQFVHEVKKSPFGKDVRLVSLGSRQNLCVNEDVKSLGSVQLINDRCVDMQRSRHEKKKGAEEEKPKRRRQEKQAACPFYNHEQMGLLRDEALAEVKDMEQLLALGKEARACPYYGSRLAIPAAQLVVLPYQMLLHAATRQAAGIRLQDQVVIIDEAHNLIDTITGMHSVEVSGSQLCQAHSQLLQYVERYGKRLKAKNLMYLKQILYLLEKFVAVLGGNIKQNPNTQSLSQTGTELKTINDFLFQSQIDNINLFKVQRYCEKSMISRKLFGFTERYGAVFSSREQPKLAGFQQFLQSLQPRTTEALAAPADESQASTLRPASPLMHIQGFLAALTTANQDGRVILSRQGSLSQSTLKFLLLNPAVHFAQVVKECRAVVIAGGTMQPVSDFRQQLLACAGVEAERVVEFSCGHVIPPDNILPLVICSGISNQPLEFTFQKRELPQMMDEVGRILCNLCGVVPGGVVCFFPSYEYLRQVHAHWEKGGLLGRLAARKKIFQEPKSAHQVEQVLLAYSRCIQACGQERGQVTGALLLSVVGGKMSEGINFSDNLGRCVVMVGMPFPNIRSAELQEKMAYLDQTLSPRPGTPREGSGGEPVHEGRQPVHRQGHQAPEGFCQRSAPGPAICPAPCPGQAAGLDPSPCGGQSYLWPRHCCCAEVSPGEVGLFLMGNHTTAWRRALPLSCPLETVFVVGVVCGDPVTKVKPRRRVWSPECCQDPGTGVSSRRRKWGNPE

Flag-tagged POLD1 = Flag-tagged POLD1 (UniProt P28340)
[2] = target: T2, Flag-tagged WDHD1 (human) (UniProt O75717)
T2 sequence: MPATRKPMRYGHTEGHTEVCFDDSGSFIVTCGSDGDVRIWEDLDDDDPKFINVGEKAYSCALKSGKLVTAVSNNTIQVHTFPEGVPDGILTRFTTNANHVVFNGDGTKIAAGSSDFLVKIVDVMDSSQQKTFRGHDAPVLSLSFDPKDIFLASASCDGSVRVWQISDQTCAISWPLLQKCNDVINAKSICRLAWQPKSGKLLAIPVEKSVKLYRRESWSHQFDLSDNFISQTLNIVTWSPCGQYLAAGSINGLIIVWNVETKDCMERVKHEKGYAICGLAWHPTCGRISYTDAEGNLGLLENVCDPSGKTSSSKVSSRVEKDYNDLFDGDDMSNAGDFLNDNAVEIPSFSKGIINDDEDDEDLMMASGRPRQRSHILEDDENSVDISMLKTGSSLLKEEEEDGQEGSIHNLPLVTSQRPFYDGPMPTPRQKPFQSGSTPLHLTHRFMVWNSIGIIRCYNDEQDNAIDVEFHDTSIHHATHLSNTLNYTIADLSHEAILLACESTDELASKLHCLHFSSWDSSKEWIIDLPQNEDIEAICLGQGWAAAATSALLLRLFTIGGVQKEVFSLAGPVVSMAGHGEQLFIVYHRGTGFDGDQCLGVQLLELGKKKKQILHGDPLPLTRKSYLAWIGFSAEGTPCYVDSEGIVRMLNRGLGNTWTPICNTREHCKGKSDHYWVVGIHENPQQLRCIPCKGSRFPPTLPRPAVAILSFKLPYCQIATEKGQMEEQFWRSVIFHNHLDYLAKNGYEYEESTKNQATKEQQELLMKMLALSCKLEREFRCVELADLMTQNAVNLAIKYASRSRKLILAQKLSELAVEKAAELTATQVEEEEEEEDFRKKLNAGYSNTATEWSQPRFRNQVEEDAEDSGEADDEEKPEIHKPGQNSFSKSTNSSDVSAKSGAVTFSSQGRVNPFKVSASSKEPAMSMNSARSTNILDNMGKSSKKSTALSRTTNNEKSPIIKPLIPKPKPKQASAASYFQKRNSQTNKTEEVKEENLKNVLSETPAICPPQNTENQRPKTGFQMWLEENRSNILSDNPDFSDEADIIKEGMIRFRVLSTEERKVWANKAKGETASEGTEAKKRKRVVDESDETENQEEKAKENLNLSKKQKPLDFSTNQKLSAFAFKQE

- binding [1]: binds
Molecule: POLD1 (endogenous), the catalytic subunit of Pol δ (from UniProt P28340 1-1107)

- binding [1]: binds
B1: WDHD1 (endogenous) (protein, UniProt O75717 1-1129)
chain: T2 sequence

- binding (Flag-tagged POLD1): binds
- binding [2]: binds
B2: untagged DDX11 (protein, UniProt Q96FC9 1-970)
chain: T1 sequence
